# PubChem BioAssay AID504791 | Drosophila RNAi Screening Center | 2011
# Screen: 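Factors in Argonaute-based small RNA production and activity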 (primary screen)
# System: Drosophila S2-derived reporter cells
# Reagent: long dsRNA against Drosophila genes, about 150-250 ng dsRNA per well (siRNA assay); about 80-120 ng (miRNA assay)
# Timing: about 5 days (siRNA assay); about 4 days (miRNA assay)
# Treatment: copper sulfate induction of reporters: 25 µM (siRNA assay); 200 mM stated (miRNA assay), 1-2 days before reading
# Measured: 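Per-well ratio of Renilla over firefly light, expressed relative to that plate's average ratio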
# Active means: 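First-pass picks had plate-scaled ratios over 1.5 for the siRNA assay, over 1.6 for the miRNA assay, or under 0.6; two distinct dsRNAs had to score alike on retest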
# In all, the deposit lists about 23,000 reagents; this is a random part of those with a known target gene and a result. In the full data, 199 (0.86%) got an active call. 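Plate-scaled ratios behind the calls are not deposited; printed light signals are raw; many rows marked increased or decreased are still called inactive.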 Names joined by + are all predicted targets of the reagent. No sequences are given here. Not stated in the record: the direction of the score.
target gene,DRSC id,miRNA reporter change,"stable assay Renilla, run 1 (luminescence)","stable assay firefly, run 1 (luminescence)",Call
CG44098,DRSC12214,,4932,4.04e5,inactive
CG44098,DRSC12327,,6978,3.54e5,inactive
vri (vrille),DRSC03633,reporter ratio lowered past the hit cutoff,5766,2.63e5,inactive
vri (vrille),DRSC23174,,3936,3.29e5,inactive
CG2127,DRSC06821,,6708,3.78e5,inactive
wuc (Wake-up-call),DRSC06152,,5590,2.49e5,inactive
Ubr1 (Ubr1 ubiquitin ligase),DRSC20148,,9869,4.12e5,inactive
Ndae1 (Na[+]-driven anion exchanger 1),DRSC00975,,5608,5.30e5,inactive
Ndae1 (Na[+]-driven anion exchanger 1),DRSC02770,,10742,4.65e5,inactive
Gr57a (Gustatory receptor 57a),DRSC06401,,6240,4.14e5,inactive
CG12885,DRSC14572,,6807,5.04e5,inactive
kipf (kipferl),DRSC15446,,3891,3.42e5,inactive
kipf (kipferl),DRSC22871,,3592,3.37e5,inactive
DUBAI + Tmem18,DRSC05344,,5999,4.59e5,inactive
Kap-alpha3 (karyopherin alpha3),DRSC16976,,6504,3.40e5,inactive
Or45b (Odorant receptor 45b),DRSC07488,,6838,3.51e5,inactive
prg (piragua),DRSC03324,,6404,4.66e5,inactive
CG34292,DRSC13807,,6000,3.46e5,inactive
CG6282,DRSC10616,,7463,4.01e5,inactive
CG33337,DRSC13632,,5586,3.67e5,inactive
CG6927,DRSC18407,,7479,4.99e5,inactive
PpD6 (Protein phosphatase D6),DRSC00774,,7854,5.73e5,inactive
PpD6 (Protein phosphatase D6),DRSC23331,,4556,3.08e5,inactive
CG11000,DRSC12158,,6274,4.58e5,inactive
HPS4 (Hermansky-Pudlak Syndrome 4),DRSC06906,,7232,3.37e5,inactive
hkb (huckebein),DRSC12377,,3912,3.96e5,inactive
ppk24 (pickpocket 24),DRSC15093,,6983,4.63e5,inactive
gammaTub37C (gamma-Tubulin at 37C),DRSC03535,,16259,1.39e6,inactive
CG14232,DRSC19588,,6788,4.92e5,inactive
Txl (Thioredoxin-like),DRSC11310,,7618,4.16e5,inactive
cysu (Curly Su),DRSC15902,,7227,3.41e5,inactive
eIF2Balpha (eukaryotic translation initiation factor 2B subunit alpha),DRSC16332,,8035,5.00e5,inactive
Bili (Band4.1 inhibitor LRP interactor),DRSC14405,reporter ratio lowered past the hit cutoff,7438,4.28e5,active
Sdr (Secreted decoy of InR),DRSC15517,,7804,3.52e5,inactive

Records listed so far whose target name starts with V or v:
target gene,DRSC id,miRNA reporter change,"stable assay Renilla, run 1 (luminescence)","stable assay firefly, run 1 (luminescence)",Call
vri (vrille),DRSC03633,reporter ratio lowered past the hit cutoff,5766,2.63e5,inactive
vri (vrille),DRSC23174,,3936,3.29e5,inactive
